Measured values as given in PubChem BioAssay AID504467 (National Center for Advancing Translational Sciences (NCATS), 2011).
Hit rate of the full screen: of about 330,000 compounds, about 7,700 (2.3%) were called active. Inconclusive results, whose numbers are uncertain, are shown with a selection of clear calls. Calls follow the shape of the dose curve; as a rule, active = well fitted inhibition curve with a large enough effect; inconclusive = small, poorly fitted or top-dose-only effect, or effect the other way; inactive = flat fitted curve, though single readings scatter. Potencies of inconclusive entries are doubtful fits and often do not repeat.

Experiment: qHTS screen for small molecules that inhibit ELG1-dependent DNA repair in human embryonic kidney (HEK293T) cells expressing luciferase-tagged ELG1; also: nearly all actives have a fitted effect of over 55% in size
Details: HEK293T ELG1-luciferase reporter, luminescence, 16 h, DNA damage induced by 5-fluorouridine; series mostly up to 46.1 µM
In short: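 Quantitative HTS, concentration-response format. 2,000 cells/well co-treated with 5-fluorouridine and compound, 16 hr in 5% CO2 at 37 °C; ONE-Glo luminescence read after 30 min.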
Potency is read from the fitted curve at half-maximal effect.

SMILES	Potency
CCOc1ccccc1CNC(=O)CCc1cn(C)c2ccccc12	inconclusive: 16.4 µM [inhibitor, partial curve, poor fit]
COc1cc(C)ccc1OCCOc1c(C)cccc1Cl	inconclusive: 25.9 µM [activator, partial curve]
O=C(NC1CCCC1)c1ccc2c(c1)N(Cc1ccccc1)CCS2	inconclusive: 29.1 µM [inhibitor, single point]
O=C(NCC1(N2CCCCC2)CCCCC1)c1ccc(S(=O)(=O)N2CCCC2)cc1	inconclusive: 0.651 µM [activator, full curve, poor fit]
CC(C)CC(NC(=O)c1ccc(Cl)cc1)C(=O)OCC(=O)c1ccc2c(c1)NC(=O)CO2 (stereo unspecified)	inconclusive: 29.1 µM [inhibitor, partial curve, poor fit]
Cc1nn(CCCC(=O)NCc2ccco2)c(=O)c2nn(-c3ccccc3)c(C)c12	inactive
Cc1ccc(S(=O)(=O)N[C@H](C(=O)NCC2CCC(C(=O)O)CC2)C(C)C)cc1 (stereo partly specified)	inactive
CCC(C)Sc1cccc(-c2nc3ccc(C)cn3c2NCc2ccccc2)c1 (stereo unspecified)	inconclusive: 28.2 µM [inhibitor, single point]
Cc1ccc(C(=O)NCc2ccc(Cl)cc2)cc1S(=O)(=O)N1CCCCC1	inactive
CCn1c2ccccc2c2cc(Nc3cc(C)nc4ncnn34)ccc21	inconclusive: 0.259 µM [inhibitor, single point]
O=c1nc(/C=C/c2ccc(O)c(O)c2)oc2ccccc12	inconclusive: 20.6 µM [activator, single point]
O=C(Nc1cccc(O)c1)c1ccc([N+](=O)[O-])cc1Cl	inconclusive: 13 µM [activator, partial curve]
CCN(CC)C(=O)CSc1nc2sc3c(c2c(=O)n1CCOC)CCC3	inconclusive: 0.517 µM [inhibitor, partial curve, poor fit]
c1ccc(OCCCn2nnc(-c3ccc(N4CCOCC4)cc3)n2)cc1	inconclusive: 16.4 µM [activator, partial curve, poor fit]
COc1ccc(-c2cc(=O)oc3c(C)c(OCC(=O)N(C)C)ccc23)cc1	inconclusive: 32.6 µM [inhibitor, partial curve, poor fit]
CS(=O)(=O)c1ccc(Cl)c(NC(=O)COC(=O)c2cccc(S(=O)(=O)N3CCCC3)c2)c1	inactive
Cn1nc(C(=O)NNC(=O)C(CCC(N)=O)NS(=O)(=O)c2ccc(Cl)cc2)c2ccccc2c1=O (stereo unspecified)	inconclusive: 18.3 µM [activator, partial curve, poor fit]
COc1cc(C)ccc1OCc1cc(C(=O)N(Cc2c(C)nn(C)c2C)C2CC2)no1	inconclusive: 9.2 µM [activator, partial curve, poor fit]
Cc1nc(-c2ccccn2)nc(SCC(=O)c2ccccc2)c1Cl	inconclusive: 18.3 µM [inhibitor, single point]
Cc1ccc(NC(=O)CSCC(=O)Nc2cc(Cl)ccc2N2CCOCC2)cc1	inactive
CCCCn1cnc2c(oc3ccccc32)c1=O	inconclusive: 18.3 µM [activator, single point]
Cc1ccccc1N=C1c2cc([N+](=O)[O-])ccc2-c2ncccc21	inactive

Molecules listed so far that have nitrogen in an aromatic ring (12):
SMILES	Potency
CCOc1ccccc1CNC(=O)CCc1cn(C)c2ccccc12	inconclusive: 16.4 µM [inhibitor, partial curve, poor fit]
Cc1nn(CCCC(=O)NCc2ccco2)c(=O)c2nn(-c3ccccc3)c(C)c12	inactive
CCC(C)Sc1cccc(-c2nc3ccc(C)cn3c2NCc2ccccc2)c1 (stereo unspecified)	inconclusive: 28.2 µM [inhibitor, single point]
CCn1c2ccccc2c2cc(Nc3cc(C)nc4ncnn34)ccc21	inconclusive: 0.259 µM [inhibitor, single point]
O=c1nc(/C=C/c2ccc(O)c(O)c2)oc2ccccc12	inconclusive: 20.6 µM [activator, single point]
CCN(CC)C(=O)CSc1nc2sc3c(c2c(=O)n1CCOC)CCC3	inconclusive: 0.517 µM [inhibitor, partial curve, poor fit]
c1ccc(OCCCn2nnc(-c3ccc(N4CCOCC4)cc3)n2)cc1	inconclusive: 16.4 µM [activator, partial curve, poor fit]
Cn1nc(C(=O)NNC(=O)C(CCC(N)=O)NS(=O)(=O)c2ccc(Cl)cc2)c2ccccc2c1=O (stereo unspecified)	inconclusive: 18.3 µM [activator, partial curve, poor fit]
COc1cc(C)ccc1OCc1cc(C(=O)N(Cc2c(C)nn(C)c2C)C2CC2)no1	inconclusive: 9.2 µM [activator, partial curve, poor fit]
Cc1nc(-c2ccccn2)nc(SCC(=O)c2ccccc2)c1Cl	inconclusive: 18.3 µM [inhibitor, single point]
CCCCn1cnc2c(oc3ccccc32)c1=O	inconclusive: 18.3 µM [activator, single point]
Cc1ccccc1N=C1c2cc([N+](=O)[O-])ccc2-c2ncccc21	inactive

(further entries)

SMILES	Potency
CCN1CCN(CCCNC(=O)CN2C(=O)c3cccnc3Oc3ccc(Cl)cc32)CC1	inactive
CC(=O)c1c(C)[nH]c(C(=O)OCC(=O)NCC(C)C)c1C	inconclusive: 18.3 µM [inhibitor, single point]
Cc1ccccc1-c1nnn(CC(=O)c2ccc(S(=O)(=O)N3CCCC3)cc2)n1	inconclusive: 23.1 µM [inhibitor, single point]
Cc1ccc2c(c1)N(C(C)C(=O)NCCc1ccccc1)C(=O)CO2 (stereo unspecified)	inconclusive: 32.6 µM [activator, single point]
O=c1[nH]c(C2CCN(S(=O)(=O)/C=C/c3ccccc3)CC2)nc2c1nnn2Cc1ccc(F)cc1	inconclusive: 23.1 µM [inhibitor, partial curve]
CCCCN=Cc1sc2ccc(OCC)cc2c1O	inconclusive: 25.9 µM [activator, single point]
CCc1ccc(Oc2coc3cc(OC(=O)c4cc5ccccc5oc4=O)ccc3c2=O)cc1	inconclusive: 9.2 µM [activator, partial curve]
CC1=C(C#N)C(Nc2ccc(C)cn2)(C(F)(F)F)C(=O)N1 (stereo unspecified)	inconclusive: 29.1 µM [activator, single point]
O=C(/C=C/c1ccc2c(c1)OCCO2)c1ccccc1	inconclusive: 16.4 µM [activator, partial curve]
COc1ccc(NC(=O)CC2C(=O)N(C)C(=S)N2Cc2cccs2)cc1 (stereo unspecified)	inactive
O=C(CNC(=O)c1ccccc1F)N/N=C\C=C\c1ccccc1	inconclusive: 16.4 µM [activator, partial curve, poor fit]
COc1ccc(CN(C)C(=O)Cn2cnc3c(OCc4ccccc4)ncnc32)cc1OC	inconclusive: 29.1 µM [inhibitor, single point]
CC(C)[C@H](NC(=O)N1CCn2c1nc1ccccc12)C(=O)NCc1ccccc1Cl	inactive
Cc1ccc(O)c(C(=O)CC(=O)c2cccc(F)c2)c1	inconclusive: 29.1 µM [activator, partial curve, poor fit]
COc1ccccc1C(=O)Nc1ccc2oc(-c3ccc(F)cc3)nc2c1	inconclusive: 9.2 µM [activator, partial curve]
COc1cc(/C=C(/C#N)c2ccccc2F)ccc1OCc1ccccc1	inactive
COCCNC(=O)/C(C#N)=C/c1cc(C)n(C2CCCCC2)c1C	inconclusive: 2.06 µM [activator, partial curve]
COc1cccc(-c2cc(=O)[nH][nH]2)c1	inconclusive: 23.1 µM [activator, single point]
O=C(Nc1nc2ccc(S(=O)(=O)N3CCCCC3)cc2s1)C1CCCO1 (stereo unspecified)	inactive
CN(C)CCCNC(=O)/C(=C\C=C\c1ccccc1)NC(=O)c1ccc([N+](=O)[O-])cc1	inconclusive: 18.3 µM [activator, partial curve, poor fit]
COc1cccc(CN(C)C(=O)C2CCN(S(=O)(=O)c3cccs3)CC2)c1OC	inconclusive: 29.1 µM [inhibitor, single point]
O=S(=O)(N/N=C/c1cn(Cc2ccccc2)c2ccccc12)c1ccccc1	inconclusive: 23.1 µM [activator, single point]

SMILES	Potency
C=CCN=Cc1sc2ccc(OCC)cc2c1O	inconclusive: 14.6 µM [activator, partial curve]
Cc1sc(N/N=C/C=C/c2ccccc2)nc1-c1ccccc1	inactive
CC(C)C[C@H](NC(=O)c1[nH]cnc1C(=O)N[C@@H](Cc1ccccc1)C(=O)OCc1ccccc1)C(=O)OC(C)(C)C	inactive
Cc1ccc(CNCC(=O)Nc2ccc(C)cc2Br)cc1	inconclusive: 23.1 µM [activator, partial curve, poor fit]
O=C(CSc1ccc2ccccc2c1Br)Nc1cccc(S(=O)(=O)NC2=NCCCCC2)c1	inconclusive: 29.1 µM [inhibitor, single point]
Cc1ccc(NS(=O)(=O)c2sc3ccc(Cl)cc3c2C)cc1	inactive
CC1CCc2nc(NC(=O)c3cc(C(C)(C)C)nn3C)sc2C1 (stereo unspecified)	inconclusive: 6.51 µM [inhibitor, single point]
NC(=O)c1c(NC(=O)COC(=O)c2ccc(O)c(Cl)c2)sc2c1CCCC2	inconclusive: 16.4 µM [inhibitor, partial curve]
CC(C)(C)CC(=O)Nc1ccc(Nc2ccccc2)cc1	inconclusive: 18.4 µM [activator, partial curve]
CCOC(=O)C1CCN(C(=O)C2CCN(S(=O)(=O)c3ccc4ccccc4c3)CC2)CC1	inconclusive: 23.1 µM [inhibitor, partial curve]
CC(=O)NC(c1ccco1)c1ccc2cccnc2c1O (stereo unspecified)	inconclusive: 4.11 µM [inhibitor, single point]
Cc1ccccc1NC(=O)Cn1nc(-c2ccc(Cl)s2)ccc1=O	inconclusive: 20.6 µM [activator, single point]
CC(=O)c1csc(Nc2ccccc2Cl)n1	inconclusive: 9.2 µM [activator, partial curve]
O=C(Nc1cn(-c2ccccc2)nc1-c1ccc(F)cc1)c1ccccc1	inconclusive: 32.6 µM [activator, partial curve, poor fit]
O=[N+]([O-])c1cc([N+](=O)[O-])c2cc3ccccc3nc2c1	inactive
CCOc1ccc(C(C)=O)cc1COc1ccc(-c2nnco2)cc1	active: 7.3 µM
CN(C)c1ccc(N/C=C/C(=O)C(C)(C)C)cc1	inconclusive: 23.1 µM [activator, single point]
COc1cccc(NC(=O)CN(C)C(=O)C(Sc2ccccc2)c2ccccc2)c1 (stereo unspecified)	inconclusive: 29.1 µM [inhibitor, single point]
O=C(COC(=O)Cn1cnc2ccccc21)Nc1cc(S(=O)(=O)N2CCOCC2)ccc1Cl	inactive
CC(C)(C)c1ccc(-c2nnc(NC(=O)c3ccccc3)s2)cc1	inconclusive: 11.2 µM [activator, partial curve, poor fit]
Cc1cc(C)cc(NC(=O)c2ccc(S(=O)(=O)C(F)F)cc2)c1	inactive
Cc1ccc(N(Cc2ccc([N+](=O)[O-])cc2)C(=O)c2ccco2)cc1	inactive
